Some of the results follow.
What was measured:
Test in all cases: log2 fold change, soluble protein after heating vs DMSO (PISA); higher = thermal stabilisation; K562 cells, 10 uM, 30 min; active = over 0.2 and 3.5 SD of the protein, either way, in both replicates (recomputed)
[1] = compound: NC(=O)Nc1cc(-c2cccc(F)c2)sc1C(=O)N[C@H]1CCCNC1
Procedure, shortened: (§1)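 Thermal stability values are relative to control samples and come from duplicates. They are expressed as log2 fold changes. For measurement, K562 cells (2×10^6 cells/mL) received 10 μM compound for 30 min, and aliquots were heated for 3 min over 48°C-58°C, pooled, and extracted at 4°C in PBS with 0.5% NP-40. Soluble protein, the supernatant after 21,000xg for 90 min, was quantified by TMTpro 16plex LC-MS/MS with equalised channel sums.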

The chains behind the UniProt entries cited, without tags or fusion partners. Where a name states a change or a piece, a line headed by the entry shows the natural chain unless it says otherwise.
UniProt Q96DA0: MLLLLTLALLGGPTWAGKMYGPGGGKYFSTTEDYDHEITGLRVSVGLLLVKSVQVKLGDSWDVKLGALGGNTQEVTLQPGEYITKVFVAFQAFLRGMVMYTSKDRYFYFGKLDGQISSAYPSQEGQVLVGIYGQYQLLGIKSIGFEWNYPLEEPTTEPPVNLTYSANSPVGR
UniProt Q96DT7: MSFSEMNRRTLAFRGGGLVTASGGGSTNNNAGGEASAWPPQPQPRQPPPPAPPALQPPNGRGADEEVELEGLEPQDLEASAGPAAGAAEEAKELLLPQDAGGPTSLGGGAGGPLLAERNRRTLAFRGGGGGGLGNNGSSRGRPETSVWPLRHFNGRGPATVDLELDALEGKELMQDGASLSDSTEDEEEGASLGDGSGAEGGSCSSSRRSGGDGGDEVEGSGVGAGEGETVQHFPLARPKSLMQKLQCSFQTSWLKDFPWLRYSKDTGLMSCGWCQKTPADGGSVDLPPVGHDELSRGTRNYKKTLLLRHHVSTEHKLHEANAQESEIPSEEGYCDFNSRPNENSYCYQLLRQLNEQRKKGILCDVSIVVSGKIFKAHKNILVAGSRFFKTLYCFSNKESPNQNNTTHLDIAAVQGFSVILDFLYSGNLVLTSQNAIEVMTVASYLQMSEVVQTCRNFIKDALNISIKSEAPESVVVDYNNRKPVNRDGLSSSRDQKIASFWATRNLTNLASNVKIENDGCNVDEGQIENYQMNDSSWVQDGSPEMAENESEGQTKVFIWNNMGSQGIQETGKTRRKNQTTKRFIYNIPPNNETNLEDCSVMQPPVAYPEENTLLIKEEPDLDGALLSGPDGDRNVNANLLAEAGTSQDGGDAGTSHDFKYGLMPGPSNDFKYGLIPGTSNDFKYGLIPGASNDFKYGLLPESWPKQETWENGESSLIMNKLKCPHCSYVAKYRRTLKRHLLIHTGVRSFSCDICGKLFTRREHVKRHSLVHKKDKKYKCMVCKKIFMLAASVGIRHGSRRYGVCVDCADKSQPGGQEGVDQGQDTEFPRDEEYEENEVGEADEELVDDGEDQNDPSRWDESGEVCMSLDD
UniProt P16989, whole entry, looked up: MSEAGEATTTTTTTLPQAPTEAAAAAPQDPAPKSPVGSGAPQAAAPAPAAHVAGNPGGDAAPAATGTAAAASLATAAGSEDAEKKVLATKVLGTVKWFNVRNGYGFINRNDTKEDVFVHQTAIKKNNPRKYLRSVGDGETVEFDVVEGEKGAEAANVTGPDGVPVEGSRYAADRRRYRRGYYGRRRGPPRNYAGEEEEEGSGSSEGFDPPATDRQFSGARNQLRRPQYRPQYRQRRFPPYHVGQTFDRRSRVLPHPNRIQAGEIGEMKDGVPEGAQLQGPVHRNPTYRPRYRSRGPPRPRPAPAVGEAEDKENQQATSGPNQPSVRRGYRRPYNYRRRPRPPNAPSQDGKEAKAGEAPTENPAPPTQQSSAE
UniProt Q8IX07: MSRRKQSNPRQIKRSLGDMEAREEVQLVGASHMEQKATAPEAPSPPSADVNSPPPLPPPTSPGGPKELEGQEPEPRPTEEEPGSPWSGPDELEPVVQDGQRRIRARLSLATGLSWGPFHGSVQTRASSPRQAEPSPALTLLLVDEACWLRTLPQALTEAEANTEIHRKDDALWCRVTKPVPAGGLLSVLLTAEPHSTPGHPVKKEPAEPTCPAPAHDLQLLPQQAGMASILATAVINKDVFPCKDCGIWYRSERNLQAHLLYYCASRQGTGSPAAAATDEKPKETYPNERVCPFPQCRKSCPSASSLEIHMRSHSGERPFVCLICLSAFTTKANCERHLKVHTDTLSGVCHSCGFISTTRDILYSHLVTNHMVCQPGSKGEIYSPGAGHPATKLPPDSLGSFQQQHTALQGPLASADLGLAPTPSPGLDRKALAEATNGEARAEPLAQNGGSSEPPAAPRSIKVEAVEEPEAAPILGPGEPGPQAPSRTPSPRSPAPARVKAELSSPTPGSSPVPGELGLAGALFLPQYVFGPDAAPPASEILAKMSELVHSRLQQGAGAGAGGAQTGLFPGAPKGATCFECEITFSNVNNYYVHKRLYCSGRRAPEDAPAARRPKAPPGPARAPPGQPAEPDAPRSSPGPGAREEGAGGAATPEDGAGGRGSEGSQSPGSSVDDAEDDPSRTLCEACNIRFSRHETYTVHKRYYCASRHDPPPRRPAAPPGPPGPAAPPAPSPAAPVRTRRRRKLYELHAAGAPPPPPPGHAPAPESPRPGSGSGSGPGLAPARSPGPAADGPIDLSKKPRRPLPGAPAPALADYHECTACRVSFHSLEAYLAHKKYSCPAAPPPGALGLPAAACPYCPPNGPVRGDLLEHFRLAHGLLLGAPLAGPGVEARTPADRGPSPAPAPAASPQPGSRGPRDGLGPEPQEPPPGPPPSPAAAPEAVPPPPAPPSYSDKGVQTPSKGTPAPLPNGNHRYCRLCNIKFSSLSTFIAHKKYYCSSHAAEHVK
UniProt Q13105: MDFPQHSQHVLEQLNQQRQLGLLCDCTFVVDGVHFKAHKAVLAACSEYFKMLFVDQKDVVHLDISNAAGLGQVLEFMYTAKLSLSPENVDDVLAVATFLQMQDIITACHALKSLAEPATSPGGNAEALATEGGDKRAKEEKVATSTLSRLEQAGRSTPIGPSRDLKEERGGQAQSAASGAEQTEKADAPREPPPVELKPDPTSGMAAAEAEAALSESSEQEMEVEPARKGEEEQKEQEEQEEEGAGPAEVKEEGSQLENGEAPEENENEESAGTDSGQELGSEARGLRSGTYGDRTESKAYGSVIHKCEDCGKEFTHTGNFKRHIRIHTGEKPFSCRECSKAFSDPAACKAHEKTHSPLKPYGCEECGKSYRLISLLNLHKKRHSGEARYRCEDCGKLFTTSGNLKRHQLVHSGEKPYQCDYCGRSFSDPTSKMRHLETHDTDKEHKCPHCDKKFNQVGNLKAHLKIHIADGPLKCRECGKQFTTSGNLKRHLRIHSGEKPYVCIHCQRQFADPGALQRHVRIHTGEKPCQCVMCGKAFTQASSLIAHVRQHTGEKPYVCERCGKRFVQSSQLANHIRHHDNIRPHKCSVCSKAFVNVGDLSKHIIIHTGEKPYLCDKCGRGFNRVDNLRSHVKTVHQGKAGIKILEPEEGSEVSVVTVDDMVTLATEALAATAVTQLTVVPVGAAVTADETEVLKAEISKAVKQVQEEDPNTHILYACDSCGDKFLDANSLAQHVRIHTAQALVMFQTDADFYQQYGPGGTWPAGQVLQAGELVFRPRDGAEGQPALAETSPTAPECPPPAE
UniProt P62258: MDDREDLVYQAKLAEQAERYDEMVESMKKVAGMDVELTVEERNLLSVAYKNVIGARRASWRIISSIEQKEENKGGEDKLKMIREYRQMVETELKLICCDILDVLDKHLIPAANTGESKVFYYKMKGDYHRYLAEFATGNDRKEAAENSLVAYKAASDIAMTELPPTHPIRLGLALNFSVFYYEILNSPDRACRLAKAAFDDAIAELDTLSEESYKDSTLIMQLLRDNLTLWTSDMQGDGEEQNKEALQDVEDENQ
UniProt O96006: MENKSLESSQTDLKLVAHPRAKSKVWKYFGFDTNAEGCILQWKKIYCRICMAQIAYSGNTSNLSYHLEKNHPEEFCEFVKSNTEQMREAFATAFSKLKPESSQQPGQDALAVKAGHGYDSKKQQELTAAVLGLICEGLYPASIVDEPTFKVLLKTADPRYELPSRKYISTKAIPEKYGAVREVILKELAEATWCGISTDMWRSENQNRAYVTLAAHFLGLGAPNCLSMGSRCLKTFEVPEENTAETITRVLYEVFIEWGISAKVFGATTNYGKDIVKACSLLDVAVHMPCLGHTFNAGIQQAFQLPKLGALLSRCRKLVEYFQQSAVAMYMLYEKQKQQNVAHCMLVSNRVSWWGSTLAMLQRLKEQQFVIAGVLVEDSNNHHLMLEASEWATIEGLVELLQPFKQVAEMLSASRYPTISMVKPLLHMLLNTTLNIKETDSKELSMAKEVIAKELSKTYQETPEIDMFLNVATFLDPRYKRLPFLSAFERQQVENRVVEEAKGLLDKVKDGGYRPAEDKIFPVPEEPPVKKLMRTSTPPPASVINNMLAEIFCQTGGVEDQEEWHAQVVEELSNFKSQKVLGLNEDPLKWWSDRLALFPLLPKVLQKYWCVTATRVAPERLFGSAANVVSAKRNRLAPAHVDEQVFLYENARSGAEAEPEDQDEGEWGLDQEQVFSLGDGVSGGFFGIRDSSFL
UniProt Q8TBF4: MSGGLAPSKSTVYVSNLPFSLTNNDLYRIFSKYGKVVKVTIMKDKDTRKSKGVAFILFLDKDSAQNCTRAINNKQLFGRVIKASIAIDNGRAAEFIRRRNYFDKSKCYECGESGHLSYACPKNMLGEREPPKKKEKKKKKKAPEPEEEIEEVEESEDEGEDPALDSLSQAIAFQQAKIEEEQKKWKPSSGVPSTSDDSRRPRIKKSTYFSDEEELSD
UniProt Q8WW38: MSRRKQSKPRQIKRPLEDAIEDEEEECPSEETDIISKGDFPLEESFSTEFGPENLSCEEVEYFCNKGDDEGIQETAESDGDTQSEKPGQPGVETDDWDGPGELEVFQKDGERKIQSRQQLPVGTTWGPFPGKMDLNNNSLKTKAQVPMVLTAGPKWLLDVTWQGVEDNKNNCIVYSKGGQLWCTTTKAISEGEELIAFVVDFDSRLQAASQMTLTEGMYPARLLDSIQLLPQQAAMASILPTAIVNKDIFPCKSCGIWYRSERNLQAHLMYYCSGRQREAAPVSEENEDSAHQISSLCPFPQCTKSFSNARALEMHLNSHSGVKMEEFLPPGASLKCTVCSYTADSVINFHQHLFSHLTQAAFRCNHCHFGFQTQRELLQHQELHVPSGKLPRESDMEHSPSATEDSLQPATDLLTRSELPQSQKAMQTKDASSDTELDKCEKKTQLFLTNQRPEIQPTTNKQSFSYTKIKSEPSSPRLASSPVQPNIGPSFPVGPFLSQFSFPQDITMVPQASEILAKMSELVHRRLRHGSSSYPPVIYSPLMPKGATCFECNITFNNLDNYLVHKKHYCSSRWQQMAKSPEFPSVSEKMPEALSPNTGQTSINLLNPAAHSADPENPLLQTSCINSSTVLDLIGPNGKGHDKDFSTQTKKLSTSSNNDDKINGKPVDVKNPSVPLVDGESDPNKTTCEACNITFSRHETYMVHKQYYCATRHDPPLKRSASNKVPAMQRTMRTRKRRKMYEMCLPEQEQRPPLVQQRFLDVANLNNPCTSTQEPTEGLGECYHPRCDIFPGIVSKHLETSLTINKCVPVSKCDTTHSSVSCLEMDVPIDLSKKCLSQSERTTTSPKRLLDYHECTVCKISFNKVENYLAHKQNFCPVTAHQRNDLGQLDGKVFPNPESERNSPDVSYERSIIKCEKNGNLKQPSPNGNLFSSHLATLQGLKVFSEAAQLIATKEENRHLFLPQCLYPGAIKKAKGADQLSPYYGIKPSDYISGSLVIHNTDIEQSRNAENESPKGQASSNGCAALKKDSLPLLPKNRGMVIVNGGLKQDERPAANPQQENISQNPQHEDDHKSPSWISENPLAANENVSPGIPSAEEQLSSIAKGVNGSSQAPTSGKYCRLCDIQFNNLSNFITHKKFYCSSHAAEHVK
UniProt Q9UK10: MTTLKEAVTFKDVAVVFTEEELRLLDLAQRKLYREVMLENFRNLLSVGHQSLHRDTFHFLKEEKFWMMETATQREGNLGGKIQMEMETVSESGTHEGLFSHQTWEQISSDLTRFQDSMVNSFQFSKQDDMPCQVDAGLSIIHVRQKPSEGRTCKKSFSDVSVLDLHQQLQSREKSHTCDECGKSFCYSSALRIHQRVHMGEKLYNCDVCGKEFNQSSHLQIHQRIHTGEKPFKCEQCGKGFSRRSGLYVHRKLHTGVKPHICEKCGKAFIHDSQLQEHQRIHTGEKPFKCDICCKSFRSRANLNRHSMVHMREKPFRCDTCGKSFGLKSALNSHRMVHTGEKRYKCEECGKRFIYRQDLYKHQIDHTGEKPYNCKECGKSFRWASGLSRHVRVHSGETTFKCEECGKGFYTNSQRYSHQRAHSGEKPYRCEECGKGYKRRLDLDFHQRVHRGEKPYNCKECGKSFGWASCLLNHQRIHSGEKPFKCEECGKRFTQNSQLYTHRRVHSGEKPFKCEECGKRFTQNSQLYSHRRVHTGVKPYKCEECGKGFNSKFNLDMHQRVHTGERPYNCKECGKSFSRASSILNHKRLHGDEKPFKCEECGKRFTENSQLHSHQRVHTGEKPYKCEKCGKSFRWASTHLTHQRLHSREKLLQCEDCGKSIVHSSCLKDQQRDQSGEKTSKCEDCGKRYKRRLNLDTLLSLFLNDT
UniProt Q5T750: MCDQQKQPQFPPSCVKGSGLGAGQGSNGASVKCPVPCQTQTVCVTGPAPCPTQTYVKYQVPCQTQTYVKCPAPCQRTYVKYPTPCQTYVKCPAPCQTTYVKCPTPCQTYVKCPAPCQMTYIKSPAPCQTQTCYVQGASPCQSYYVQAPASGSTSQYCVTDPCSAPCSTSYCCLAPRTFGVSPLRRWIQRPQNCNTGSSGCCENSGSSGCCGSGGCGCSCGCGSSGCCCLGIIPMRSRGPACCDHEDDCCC

[2] = compound: NC(=O)c1cnc(N[C@@H]2CCCC[C@@H]2N)nc1Nc1cccc(-n2nccn2)c1
Procedure, shortened: as §1

[3] = compound: Nc1ccccc1NC(=O)c1ccc(CNC(=O)OCc2cccnc2)cc1 [entinostat]
Procedure, shortened: as §1

[4] = compound: O=C(CCCCCCC(=O)Nc1ccccc1)NO [vorinostat]
Procedure, shortened: as §1

[5] = compound: O=C1NC(=O)C(c2cnc3ccccn23)=C1c1cn2c3c(cc(F)cc13)CN(C(=O)N1CCCCC1)CC2
Procedure, shortened: as §1

[6] = compound: NC1(c2ccc(-c3nc4ccn5c(=O)[nH]nc5c4cc3-c3ccccc3)cc2)CCC1
Procedure, shortened: as §1

[7] = compound: NCC(=O)Nc1ccc(-n2nc(C(F)(F)F)cc2-c2ccc3c(ccc4ccccc43)c2)cc1
Procedure, shortened: as §1

[8] = compound: O=C(CCCCCCNC(=O)c1cnc(N(c2ccccc2)c2ccccc2Cl)nc1)NO [citarinostat]
Procedure, shortened: as §1

[9] = compound: O=C(O)c1ccc2c(c1)nc(Nc1cccc(Cl)c1)c1ccncc12 [silmitasertib]
Procedure, shortened: as §1

[10] = compound: c1cc(OCCN2CCCCC2)cc(-c2n[nH]c3ccc(-c4nnc[nH]4)cc23)c1
Procedure, shortened: as §1

Measured: log2 fold change

XRCC1 (UniProt P18887)
inactive: [1] -0.011 | [2] -0.183 | [3] 0.064 | [4] 0.228 | [5] -0.211

ZG16B (UniProt Q96DA0)
inactive: [1] 1.26 | [2] 0.156 | [6] 0.002 | [7] -0.26 | [3] -0.006 | [8] -0.067 | [9] 0.506 | [10] 0.322

ZBTB7B isoform 2 (UniProt O15156)
inactive: [1] 0.025 | [7] 0.035 | [3] -0.202 | [8] 0.131 | [10] 0.099

ZBTB10 (UniProt Q96DT7)
inactive: [1] 0.029 | [2] 0.12 | [6] 0.077 | [3] -0.007 | [4] -0.031 | [8] 0.116 | [9] -0.023 | [5] 0.112 | [10] -0.111

YIPF1 (UniProt Q9Y548)
inactive: [1] -0.172 | [6] -0.002 | [7] -0.001 | [3] -0.112 | [8] 0.053 | [9] 0.026 | [10] 0.116

YBX3 isoform 2 (UniProt P16989)
inactive: [1] -0.062 | [2] 0.032 | [6] 0.308 | [7] 0.155 | [3] -0.13 | [8] -0.013 | [9] 0.161 | [5] 0.072 | [10] -0.062

ZMYM4 (UniProt Q5VZL5)
inactive: [1] 0.29 | [6] -0.146 | [7] 0.007 | [3] 0 | [4] 0.041 | [8] 0.068 | [9] -0.014 | [5] 0.088 | [10] 0.014

ZCCHC17 (UniProt Q9NP64)
inactive: [1] -0.064 | [7] -0.137 | [3] 0.081

ZEB2 (UniProt O60315)
inactive: [1] 0.003 | [6] -0.127 | [7] -0.343 | [3] -0.03 | [9] -0.001 | [5] 0.116

ZFPM1 (UniProt Q8IX07)
inactive: [1] 0.032 | [7] 0.05 | [3] 0.009 | [8] 0.155 | [5] 0.021 | [10] -0.128

ZBTB7A (UniProt O95365)
inactive: [1] -0.079 | [2] -0.02 | [3] -0.117 | [8] 0.061 | [5] 0.128 | [10] -0.014

XK (UniProt P51811)
inactive: [1] -0.025 | [2] 0.077 | [6] 0.092 | [7] -0.013 | [3] -0.113 | [4] -0.023 | [8] -0.057 | [9] -0.005 | [10] 0.003

ZBTB17 isoform 2 (UniProt Q13105)
inactive: [1] -0.032 | [6] -0.143 | [3] -0.14 | [9] 0.023

ZBTB21 (UniProt Q9ULJ3)
inactive: [1] -0.083 | [2] -0.044 | [6] 0.047 | [7] -0.042 | [3] -0.074 | [4] 0.079 | [9] 0.104 | [5] -0.226

YWHAE (UniProt P62258)
inactive: [1] 0.031 | [2] 0.009 | [6] 0.024 | [7] 0.018 | [3] -0.008 | [4] -0.03 | [8] 0.028 | [9] -0.025 | [5] -0.017 | [10] 0.001

ZNF239 (UniProt Q16600)
inactive: [1] 0.015 | [2] -0.092 | [6] -0.253 | [7] -0.027 | [3] -0.023 | [4] 0.275 | [9] 0.29 | [5] 0.082

XIRP2 isoform 8 (UniProt A4UGR9)
inactive: [1] -0.155 | [2] -0.021 | [6] -0.076 | [3] -0.003 | [4] -0.119 | [8] 0.034 | [9] 0.053 | [10] -0.106

ZBTB43 (UniProt O43298)
inactive: [1] -0.018 | [2] 0.092 | [7] 0 | [3] -0.091 | [4] -0.005 | [8] -0.173 | [5] 0.196 | [10] -0.026

ZFC3H1 (UniProt O60293)
inactive: [1] -0.177 | [2] -0.125 | [6] 0.141 | [3] 0.034 | [8] -0.062 | [9] 0.115 | [10] 0.267

ZFAND1 (UniProt Q8TCF1)
inactive: [1] 0.025 | [6] -0.088 | [7] 0.439 | [3] 0.002 | [8] 0.119 | [9] -0.158 | [10] 0.072

ZKSCAN8 (UniProt Q15776)
inactive: [1] -0.052 | [7] 0.103 | [3] -0.006 | [4] 0.188 | [8] -0.024 | [5] 0.268 | [10] -0.177

ZFYVE9 (UniProt O95405)
inactive: [1] -0.035 | [6] -0.28 | [7] 0.037 | [3] 0.133 | [8] 0.26 | [9] 0.017 | [5] -0.077 | [10] -0.135

ZFR (UniProt Q96KR1)
inactive: [1] -0.104 | [6] 0.118 | [7] 0.081 | [3] -0.041 | [4] 0.089 | [8] 0.104 | [9] 0.081 | [5] 0.258 | [10] -0.072

ZDHHC14 (UniProt Q8IZN3)
inactive: [1] -0.14 | [2] -0.155 | [6] 0.097 | [7] 0.025 | [3] -0.087 | [8] -0.095 | [9] -0.018 | [5] -0.034 | [10] 0.137

ZBED1 (UniProt O96006)
inactive: [1] -0.066 | [2] -0.088 | [3] 0.069 | [5] -0.255

ZDHHC2 (UniProt Q9UIJ5)
inactive: [1] -0.019 | [6] -0.095 | [3] -0.038 | [4] 0.014 | [8] 0.101 | [9] 0.137 | [10] -0.176

ZDHHC4 (UniProt Q9NPG8)
inactive: [1] 0.067 | [6] -0.07 | [7] 0.025 | [3] 0.062 | [9] 0.021 | [5] -0.042

6 consecutive records from above, quoted:
ZFAND1 (UniProt Q8TCF1)
inactive: [1] 0.025 | [6] -0.088 | [7] 0.439 | [3] 0.002 | [8] 0.119 | [9] -0.158 | [10] 0.072

ZKSCAN8 (UniProt Q15776)
inactive: [1] -0.052 | [7] 0.103 | [3] -0.006 | [4] 0.188 | [8] -0.024 | [5] 0.268 | [10] -0.177

ZFYVE9 (UniProt O95405)
inactive: [1] -0.035 | [6] -0.28 | [7] 0.037 | [3] 0.133 | [8] 0.26 | [9] 0.017 | [5] -0.077 | [10] -0.135

ZFR (UniProt Q96KR1)
inactive: [1] -0.104 | [6] 0.118 | [7] 0.081 | [3] -0.041 | [4] 0.089 | [8] 0.104 | [9] 0.081 | [5] 0.258 | [10] -0.072

ZDHHC14 (UniProt Q8IZN3)
inactive: [1] -0.14 | [2] -0.155 | [6] 0.097 | [7] 0.025 | [3] -0.087 | [8] -0.095 | [9] -0.018 | [5] -0.034 | [10] 0.137

ZBED1 (UniProt O96006)
inactive: [1] -0.066 | [2] -0.088 | [3] 0.069 | [5] -0.255

Next results.

ZKSCAN4 (UniProt Q969J2)
inactive: [2] -0.034 | [7] 0.045

ZCRB1 (UniProt Q8TBF4)
inactive: [1] -0.08 | [3] -0.174 | [4] -0.073 | [8] -0.032 | [10] -0.024

ZFPM2 (UniProt Q8WW38)
inactive: [2] 0.056 | [6] -0.071 | [9] 0.078

ZNF225 (UniProt Q9UK10)
inactive: [2] -0.056

XP32 (UniProt Q5T750)
inactive: [2] 0.537 | [6] 0.184 | [4] 0.077 | [8] 0.026 | [9] 0.213 | [10] 0.907
